The source of these data is publication PMC12463027, “KRAS/ABHD17C/ALOX15B Axis Promotes Pancreatic Cancer Progression via Ferroptosis Evasion” (Advanced Science, 2025).

Amino acid sequences for entries named in this document (tags omitted).
UniProt P46379: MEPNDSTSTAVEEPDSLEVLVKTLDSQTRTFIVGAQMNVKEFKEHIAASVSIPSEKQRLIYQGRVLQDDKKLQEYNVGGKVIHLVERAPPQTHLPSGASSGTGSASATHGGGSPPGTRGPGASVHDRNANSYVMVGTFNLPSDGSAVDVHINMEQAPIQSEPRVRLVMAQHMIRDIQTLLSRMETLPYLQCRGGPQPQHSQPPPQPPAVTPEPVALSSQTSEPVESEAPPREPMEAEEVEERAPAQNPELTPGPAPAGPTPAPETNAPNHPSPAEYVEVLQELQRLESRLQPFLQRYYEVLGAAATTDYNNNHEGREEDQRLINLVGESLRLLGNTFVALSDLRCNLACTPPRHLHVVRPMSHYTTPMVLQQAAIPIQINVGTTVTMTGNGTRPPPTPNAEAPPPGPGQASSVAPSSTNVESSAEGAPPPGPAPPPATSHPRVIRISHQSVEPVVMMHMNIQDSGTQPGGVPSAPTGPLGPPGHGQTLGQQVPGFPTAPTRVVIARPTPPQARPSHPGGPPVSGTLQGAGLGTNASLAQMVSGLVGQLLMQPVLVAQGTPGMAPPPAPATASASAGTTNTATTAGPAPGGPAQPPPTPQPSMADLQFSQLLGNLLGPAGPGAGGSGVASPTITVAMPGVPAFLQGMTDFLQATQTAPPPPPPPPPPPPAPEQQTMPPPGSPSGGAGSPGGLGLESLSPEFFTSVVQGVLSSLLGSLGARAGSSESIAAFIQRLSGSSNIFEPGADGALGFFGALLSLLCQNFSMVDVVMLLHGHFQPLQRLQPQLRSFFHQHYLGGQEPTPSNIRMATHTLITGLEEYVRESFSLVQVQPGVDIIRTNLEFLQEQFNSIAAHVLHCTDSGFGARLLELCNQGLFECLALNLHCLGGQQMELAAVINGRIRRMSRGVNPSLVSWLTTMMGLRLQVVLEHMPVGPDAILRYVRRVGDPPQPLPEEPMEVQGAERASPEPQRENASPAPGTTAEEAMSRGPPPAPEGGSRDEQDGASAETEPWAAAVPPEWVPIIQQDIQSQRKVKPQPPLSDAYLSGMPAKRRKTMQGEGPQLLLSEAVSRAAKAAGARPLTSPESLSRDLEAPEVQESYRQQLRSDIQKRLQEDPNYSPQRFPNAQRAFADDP
UniProt P25685: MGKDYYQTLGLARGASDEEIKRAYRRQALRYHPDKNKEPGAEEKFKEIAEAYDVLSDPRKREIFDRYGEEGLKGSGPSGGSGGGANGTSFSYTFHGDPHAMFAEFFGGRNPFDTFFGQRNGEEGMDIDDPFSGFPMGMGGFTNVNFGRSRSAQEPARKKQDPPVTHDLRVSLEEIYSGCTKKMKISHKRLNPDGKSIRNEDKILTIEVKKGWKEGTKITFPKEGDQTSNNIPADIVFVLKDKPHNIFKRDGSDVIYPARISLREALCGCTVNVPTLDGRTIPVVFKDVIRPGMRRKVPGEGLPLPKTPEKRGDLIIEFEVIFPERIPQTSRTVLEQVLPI
UniProt P11413: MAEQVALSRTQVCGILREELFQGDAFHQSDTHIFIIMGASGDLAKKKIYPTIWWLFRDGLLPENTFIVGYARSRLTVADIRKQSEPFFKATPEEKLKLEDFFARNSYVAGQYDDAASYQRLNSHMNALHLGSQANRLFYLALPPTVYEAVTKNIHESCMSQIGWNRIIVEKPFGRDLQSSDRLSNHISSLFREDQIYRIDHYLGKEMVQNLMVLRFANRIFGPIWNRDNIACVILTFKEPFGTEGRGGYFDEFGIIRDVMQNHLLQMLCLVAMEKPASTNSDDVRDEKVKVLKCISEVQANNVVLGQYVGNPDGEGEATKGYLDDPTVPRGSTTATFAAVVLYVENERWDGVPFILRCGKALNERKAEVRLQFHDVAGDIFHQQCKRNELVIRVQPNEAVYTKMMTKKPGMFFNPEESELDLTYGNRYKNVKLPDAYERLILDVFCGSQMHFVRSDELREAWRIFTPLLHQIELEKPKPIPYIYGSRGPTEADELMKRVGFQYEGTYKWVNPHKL

The experiment deals with T1, arachidonate 15-lipoxygenase (ALOX15B), in PDAC cells (human) (UniProt O15296).
T1 sequence: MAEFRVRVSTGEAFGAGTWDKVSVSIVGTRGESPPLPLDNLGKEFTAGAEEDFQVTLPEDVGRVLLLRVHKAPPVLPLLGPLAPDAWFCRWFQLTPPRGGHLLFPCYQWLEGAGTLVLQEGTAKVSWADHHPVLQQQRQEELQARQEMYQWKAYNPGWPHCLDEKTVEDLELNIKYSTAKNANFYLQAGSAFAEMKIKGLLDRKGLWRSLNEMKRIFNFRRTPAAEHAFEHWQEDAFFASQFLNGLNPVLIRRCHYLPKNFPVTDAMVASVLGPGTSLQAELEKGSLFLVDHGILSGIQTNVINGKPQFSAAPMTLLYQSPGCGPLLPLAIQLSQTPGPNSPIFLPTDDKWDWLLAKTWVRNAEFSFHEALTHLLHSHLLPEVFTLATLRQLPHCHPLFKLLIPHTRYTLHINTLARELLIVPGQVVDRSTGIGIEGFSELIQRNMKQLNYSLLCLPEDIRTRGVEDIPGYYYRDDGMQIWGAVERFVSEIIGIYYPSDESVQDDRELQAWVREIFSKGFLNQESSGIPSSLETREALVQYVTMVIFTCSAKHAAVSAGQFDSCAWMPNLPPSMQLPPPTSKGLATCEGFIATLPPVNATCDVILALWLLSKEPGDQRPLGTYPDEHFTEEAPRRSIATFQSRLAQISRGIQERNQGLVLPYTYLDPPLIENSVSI
Put plainly: affinity purification with mass spectrometry; affinity purification of ALOX15B from KRAS^mut-PDAC and KRAS^wt-PDAC cells, quantitative proteomics (IP-MS).

Results are given in words; binding and its absence hold for the method and conditions named. Binding seen in cells or lysates may run through a third protein. These calls come from enrichment with a bait or labelling near it, and not all partners need be listed.

Regarding BAG6 (from UniProt P46379 1-1132), the binding entry is given as “binds”.
Next, DNAJB1 (from UniProt P25685 1-340): “binds”; G6PD (from UniProt P11413 1-515): “binds”.

B1: ABHD17B (protein, UniProt Q5VST6 1-288)
chain: MNNLSFSELCCLFCCPPCPGKIASKLAFLPPDPTYTLMCDESGSRWTLHLSERADWQYSSREKDAIECFMTRTSKGNRIACMFVRCSPNAKYTLLFSHGNAVDLGQMSSFYIGLGSRINCNIFSYDYSGYGASSGKPTEKNLYADIEAAWLALRTRYGIRPENVIIYGQSIGTVPSVDLAARYESAAVILHSPLTSGMRVAFPDTKKTYCFDAFPNIDKISKITSPVLIIHGTEDEVIDFSHGLALFERCQRPVEPLWVEGAGHNDVELYGQYLERLKQFVSQELVNL
Take B1: the binding entry is “binds”.

B2: recombinant DCAF10 (natural protein, UniProt Q5QP82 1-559, looked up)
chain: MFPFGPHSPGGDGSAGAGAEEPTPHEGQAAATGPPSPLHPGADATHPPPPARSPRRPGAPSLSPAPRSGELGLPGAPESSTASAPGEPSPPSPPCRRPGPDCRAKSRGRHGLGAGLGGPGARLFGWLKERSLGRGLFVDPARDNFRTMTSLYGSIHPADSVYLSTRTHGAVFNLEYSPDGSVLTVACEQTEVLLFDPISSKHIKTLSEAHEDCVNNIRFLDNRLFATCSDDTTIALWDLRKLNTKVCTLHGHTSWVKNIEYDTNTRLLVTSGFDGNVIIWDTNRYTEDGCPHKKFFHTRFLMRMRLTPDCSKMLISTSSGYLLILHDLDLTKSLEVGSYPILRARRTTSSSDLTTSSSSSGPRVSGSPCHHSDSNSSEKHMSRASQREGVSPRNSLEVVTPEVLGESDHGNCITSLQLHPKGWATLLRCSSNSDDEECTCVYEFQEGAPVRPVSPRCSLRLTHYIEEANVGRGYIKELCFSPDGRMISSPHGYGIRLLGFDKQCSELVDCLPKEASPLRVIRSLYSHNDVVLTTKFSPTHCQIASGCLSGRVSLYQPKF
notes: DCAF10, recombinant
For B2, the binding result was “binds”.

B3: ABHD17C, in PDAC cells (enzyme, UniProt Q6PCB6 1-329)
chain: MPEPGPRMNGFSLGELCWLFCCPPCPSRIAAKLAFLPPEPTYTVLAPEQRGAGASAPAPAQATAAAAAAQPAPQQPEEGAGAGPGACSLHLSERADWQYSQRELDAVEVFFSRTARDNRLGCMFVRCAPSSRYTLLFSHGNAVDLGQMCSFYIGLGSRINCNIFSYDYSGYGVSSGKPSEKNLYADIDAAWQALRTRYGVSPENIILYGQSIGTVPTVDLASRYECAAVILHSPLMSGLRVAFPDTRKTYCFDAFPSIDKISKVTSPVLVIHGTEDEVIDFSHGLAMYERCPRAVEPLWVEGAGHNDIELYAQYLERLKQFISHELPNS
Take B3: the binding result is “binds”.
